From patent publication US20240180923A1, “METHODS OF TREATING DISORDERS WITH ULK INHIBITORS” (Deciphera Pharmaceuticals, LLC, priority 2022, published 2024)
Read-outs that look alike come from different tables or passages of the source. At least one compound was matched to its structure with a doubt left.

Experiments:
[1] = test system: autophagy in MiaPaca2 cells; assay: mCherry/GFP LC3 autophagy flux assay in MiaPaca2, DCC-3116 with trametinib; format: cell-based; settings: MiaPaca2 model, FIG. 5B
Protocol: (§1) Constructs were designed through VectorBuilder. For each cell line, 10 ml of appropriate media was mixed with Polybrene (VectorBuilder, Cat #PL0001, stock concentration 5 mg/ml, 200 ul) to a final concentration of 15 ng/μL. These solutions were added to the 6-well plate with various cell lines plated the previous day. Cells were checked after 22 hours of incubation. Media was then removed from the cells and incubated with fresh media containing puromycin (Sigma Cat #P9620). Cells that survived puromycin selection and successfully expressed mCherry-GFP-LC3 were used for flux assays.
(§2) Cells are seeded in FluoroBrite DMEM (Gibco Ref #A18967-01) supplemented with 10% FBS (Gibco ref #A384000-001) and Pen/Strep/Glutamine (Gibco Ref #10378-016) at appropriate seeding numbers defined empirically. The next day, cells are treated with DCC-3116 and/or trametinib or DMSO as a control. Cells are placed in the IncuCyte for live cell imaging over the indicated time length at 37° C. with 20% 02 and 5% CO2. Cells were imaged at 4× objective lens every four hours. The data was analyzed using the Incucyte software by measuring Total Integrated Intensity (GCUX μM2/images) of red (mCherry) divided by (GCUX μM2/images) green (GFP) to measure the ratio of red/green signal change over time.

ULK [2] = assay: pATG13 ELISA in NSCLC cell lines (H358, H1373, H2122), DCC-3116 with trametinib; format: cell-based; settings: multiple NSCLC cell lines, FIG. 6A
[3] = test system: autophagic flux in NSCLC cell lines; assay: Autophagy flux assay in NSCLC cell lines, DCC-3116 with trametinib; format: cell-based; settings: multiple NSCLC cell lines, FIG. 6B
Protocol: as §1, §2

[4] = test system: autophagy in A549 NSCLC cell line; assay: Autophagy in A549 NSCLC line (FIG. 7B), DCC-3116 with trametinib; format: cell-based
ULK [5] = settings: MiaPaca2 cell line, FIG. 5A
ULK [6] = settings: A549 NSCLC cell line, FIG. 7A

## CC(=O)Nc1cccc(-n2c(=O)n(C3CC3)c(=O)c3c(Nc4ccc(I)cc4F)n(C)c(=O)c(C)c32)c1 [trametinib, reference compound]
[1]
  effect on autophagy: activation of autophagy
ULK [2]
  effect on ULK activity: induces
[3]
  effect on autophagic flux: induces
[4]
  effect on autophagy: activation of autophagy
ULK [5]
  effect on ULK (pATG13): activation of ULK
ULK [6]
  effect on ULK activity: induces ULK activity
